Laboratory results published in patent US20020147158A1, “Composition and method for preventing and treating sinusoidal obstruction syndrome and radiation-induced liver disease” (University of Southern California, priority 2001, published 2002).
At least one compound was matched to its structure with a doubt left.

Test system: monocrotaline-induced hepatic venoocclusive disease
Experiment: monocrotaline-induced rat model of SOS (hepatic venoocclusive disease), blinded histologic scoring
Format: in vivo
Excerpt: This FIGURE describes the effect of MMP inhibition in the in monocrotaline-induced model of SOS. Injury is rated as absent (−) or as one, two or three plus. The overall score reflects central vein (CV) endothelial damage, hemorrhage and coagulative necrosis: 2-3 points is considered mild SOS, 4-6 points is considered moderate SOS and 7-9 points is severe disease. The MMP2/MMP9 inhibitor used is 2-[(4-biphenylylsulfonyl)amino]-3-phenyl-propionic acid.
The present invention provides methods for using matrix metalloproteinase inhibitors to prevent and treat chemotherapy-induced liver disease, such as SOS and radiation-induced liver disease. These studies were done in an in vivo model of monocrotaline-induced hepatic venoocclusive disease which closely resembles the human disease.^8 Two commercially available MMP inhibitors were tested in the in vivo rat model of hepatic venoocclusive disease: doxycycline and the MMP-2/MMP-9 inhibitor, 2-[(4-biphenylsulfonyl)amino]-3-phenyl-propionic acid. Doxycycline, 15 mg/kg was given twice daily by gavage prior to onset of the disease and continued until the time of sacrifice. 2-[(4-biphenylsulfonyl)amino]-3-phenyl-propionic acid, 200 μg/hour was infused into the portal circulation until the time of sacrifice. A systematic scoring system was devised to review all the changes associated with hepatic venoocclusive disease.
The rats that were treated with the MMP inhibitors were sacrificed on day 4, which is the time-point with most severe disease in this model of hepatic venoocclusive disease when no therapeutic interventions are used. […] Both of these MMP inhibitors prevent hepatic venoocclusive disease in a dose-dependent manner, these showing that this is a class effect of MMP inhibitors and characteristic of MMP inhibition.

C[C@H]1c2cccc(O)c2C(=O)C2=C(O)[C@]3(O)C(=O)C(C(N)=O)=C(O)[C@@H](N(C)C)[C@@H]3[C@@H](O)[C@@H]21 [doxycycline]
hepatic venoocclusive disease on blinded pathology scoring (day 4, 15 mg/kg twice daily by gavage): absence of hepatic venoocclusive disease
protection from liver changes at lower doses (doses lower than 15 mg/kg twice daily (doxycycline) or 200 μg/hour (BPP)): partial protection
prevention of SOS (overall histologic score, FIG. 1) (monocrotaline model, day 4): completely prevented SOS
